These results are taken from PMC3587611.

The target in the experiment is GST-Dullard protein harbouring the D69E mutation in the catalytic domain. As to the kind of experiment: pull-down; GST-Dullard recombinant protein as bait; Myc-tagged Dvls from transfected HEK293 cells, detected by an anti-Myc antibody; two independent experiments.

Results are given in words; binding and its absence hold for the method and conditions named. Binding seen in cells or lysates may run through a third protein. Binding calls can cover weak binding; strength is not graded here. Sequences can lack the tags named with a protein.

B1: Myc-tagged Dvl2 (protein, UniProt Q60838 1-736)
chain: MAGSSAGGGGVGETKVIYHLDEEETPYLVKIPVPAERITLGDFKSVLQRPAGAKYFFKSMDQDFGVVKEEISDDNARLPCFNGRVVSWLVSSDTPQPEVAPPAHESRTELVPPPPPLPPLPPERTSGIGDSRPPSFHPNVSSSHENLEPETETESVVSLRRDRPRRRDSSEHGAGGHRPGGPSRLERHLAGYESSSTLMTSELESTSLGDSDEDDTMSRFSSSTEQSSASRLLKRHRRRRKQRPPRMERTSSFSSVTDSTMSLNIITVTLNMEKYNFLGISIVGQSNERGDGGIYIGSIMKGGAVAADGRIEPGDMLLQVNDMNFENMSNDDAVRVLRDIVHKPGPIVLTVAKCWDPSPQAYFTLPRNEPIQPIDPAAWVSHSAALTGAFPAYPGSSSMSTITSGSSLPDGCEGRGLSVHMDMASVTKAMAAPESGLEVRDRMWLKITIPNAFLGSDVVDWLYHHVEGFPERREARKYASGLLKAGLIRHTVNKITFSEQCYYVFGDLSGGCESYLVNLSLNDNDGSSGASDQDTLAPLPGATPWPLLPTFSYQYPAPHPYSPQPPPYHELSSYTYGGGSASSQHSEGSRSSGSTRSDGGAGRTGRPEERAPESKSGSGSESELSSRGGSLRRGGEPGGTGDGGPPPSRGSTGAPPNLRALPGLHPYGAPSGMALPYNPMMVVMMPPPPPPVSTAVQPPGAPPVRDLGSVPPELTASRQSFHMAMGNPSEFFVDVM
For B1, the binding entry is “binds”.
